The whole screen tested about 330,000 compounds, of which about 7,700 (2.3%) were called active. Inconclusive means that the source gave no clear call. Such entries were picked first, then a sample of the others. The call rests on the fitted dose curve; in most records, active means well fitted inhibition curve with a large enough effect; inconclusive means small, poorly fitted or top-dose-only effect, or effect the other way; inactive means flat fitted curve, though single readings scatter. Potencies of inconclusive entries are doubtful fits and often do not repeat.
Assay: qHTS screen for small molecules that inhibit ELG1-dependent DNA repair in human embryonic kidney (HEK293T) cells expressing luciferase-tagged ELG1; further: nearly all actives have a fitted effect of over 55% in size
Details: HEK293T ELG1-luciferase reporter, luminescence, 16 h, DNA damage induced by 5-fluorouridine; activity change, negative = inhibition: at 46.1 µM (top of the series)
Procedure, shortened: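 HEK293T cells expressing luciferase-tagged ELG1 (2,000/well) received 5-Fluorouridine plus compound or DMSO for 16 hr at 37 °C. Luciferase was read by ONE-Glo luminescence after 30 min at room temperature.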
On the % scale 0 is the no-effect control and ±100 the full control effect; potency means the concentration at half of the fitted maximal effect.

**Q.** With `COc1ccccc1C1=Nn2c(nnc2C2CCCCC2)SC1` as the compound, how does the Potency read?
**A.** inconclusive: 25.9 µM [inhibitor, single point]

**Q.** With `Cn1c2ccccc2c2ncn(CCC3=CCCCC3)c(=O)c21` as the compound, how does the Potency read?
**A.** inconclusive: 8.2 µM [activator, partial curve]

**Q.** For `COCCCNC(=O)c1cc2c(=O)n(C)c3ccccc3c2n1C`, which Potency is on record?
**A.** inconclusive: 18.4 µM [inhibitor, single point]

**Q.** Which “activity change, negative = inhibition” value does the source give for `COC(=O)c1ccc(C)c(-n2c(=O)n(Cc3ccccc3)c(=O)c3[nH]cnc32)c1` here?
**A.** inactive: -4.34%

**Q.** With `O=C(O)c1ccc(NCCC2=CCCCC2)c([N+](=O)[O-])c1` as the compound, how does the “activity change, negative = inhibition” value read?
**A.** inactive: 1.03%

**Q.** With `CCOc1ccc(N=Nc2ccc(O)c3ncccc23)cc1` as the compound, how does the Potency read?
**A.** inconclusive: 5.8 µM [inhibitor, full curve]

**Q.** With `O=C(C1CCCO1)N1CCN(S(=O)(=O)c2cc(C(F)(F)F)ccc2Cl)CC1` (configuration not stated) as the compound, how does the “activity change, negative = inhibition” value read?
**A.** inactive: 1.01%

**Q.** For `CCN(CC)c1ccc2cc(C(=O)NNC(=O)c3ccc(S(=O)(=O)N4CCCCC4)cc3)c(=O)oc2c1`, which Potency is on record?
**A.** inconclusive: 4.61 µM [inhibitor, single point]

**Q.** With `COc1ccc(NC(=O)C2CCN(S(=O)(=O)c3cccc4cccnc34)CC2)cc1OC` as the compound, how does the Potency read?
**A.** inconclusive: 14.6 µM [inhibitor, partial curve, poor fit]

**Q.** Which “activity change, negative = inhibition” value does the source give for `COc1cc(OC)c(NC(=S)NCc2ccc(F)cc2)cc1Cl` here?
**A.** inactive: -0.908%

**Q.** With `Cc1ccc(NC(=O)Nc2cccs2)cc1` as the compound, how does the Potency read?
**A.** inconclusive: 9.2 µM [activator, partial curve]

**Q.** For `Cc1ccc2nc(C3CCCN3Cc3nc(CCC(C)C)no3)[nH]c2c1` (configuration not stated), which Potency is on record?
**A.** inconclusive: 16.4 µM [inhibitor, single point]

**Q.** With `CCCCC(=O)Nc1cnc(NC(=O)c2ccco2)cc1C` as the compound, how does the Potency read?
**A.** inconclusive: 20.6 µM [activator, partial curve]

**Q.** For `CCN(CC)CCCNC(=O)C(C)n1nc(C)c2sc3ccccc3c2c1=O` (configuration not stated), which “activity change, negative = inhibition” value is on record?
**A.** inactive: 2.98%

**Q.** For `O=C(c1cccs1)c1coc2ccc(O)cc12`, which Potency is on record?
**A.** inconclusive: 23.1 µM [activator, partial curve, poor fit]

**Q.** With `Cc1ccc(C)c(NC(=O)CCC(=O)NNS(=O)(=O)c2ccc(Cl)cc2)c1` as the compound, how does the “activity change, negative = inhibition” value read?
**A.** inactive: -10.8%

**Q.** For `CCN(CC)S(=O)(=O)c1ccc(N2CCOCC2)c(NC(=O)COc2ccccc2C#N)c1`, which Potency is on record?
**A.** active: 9.2 µM

**Q.** With `COc1ccccc1/C=C/C(=O)N1CCc2cc(OC)c(OC)cc2C1C` (configuration not stated) as the compound, how does the “activity change, negative = inhibition” value read?
**A.** inactive: -23.3%

**Q.** For `Cc1cc(-c2nnc(SCC(=O)Nc3nccs3)o2)no1`, which Potency is on record?
**A.** inconclusive: 23.1 µM [activator, partial curve]

**Q.** With `O=C(COc1ccc(C(=O)c2ccccc2)cc1)NC1CCCCCC1` as the compound, how does the Potency read?
**A.** inconclusive: 14.6 µM [inhibitor, partial curve, poor fit]

**Q.** With `CC1CCCC(C)N1C(=O)CSc1nnc(COc2ccccc2)n1-c1ccccc1` (configuration not stated) as the compound, how does the “activity change, negative = inhibition” value read?
**A.** inactive: -18.4%

**Q.** Which Potency does the source give for `O=C(Nc1cccc(S(=O)(=O)N2CCCC2)c1)c1cncc(Br)c1` here?
**A.** inconclusive: 20.6 µM [inhibitor, single point]

**Q.** For `COC(=O)c1sc(-c2ccc(C(C)(C)C)cc2)cc1NC(=O)CCC(=O)O`, which Potency is on record?
**A.** inconclusive: 20.6 µM [activator, single point]

**Q.** For `COc1cc(OC)c2c(-c3cccc(-c4ccc(OC)c(OC)c4)c3)cc(=O)oc2c1`, which Potency is on record?
**A.** inconclusive: 5.8 µM [inhibitor, partial curve, poor fit]

**Q.** With `C=CCc1c(C)nc2ccc(C(=O)OCC)cc2c1Cl` as the compound, how does the Potency read?
**A.** inconclusive: 18.3 µM [activator, partial curve, poor fit]

**Q.** With `CN(Cc1ccccc1)C(=O)c1ccccc1NC(=O)c1ccccc1` as the compound, how does the “activity change, negative = inhibition” value read?
**A.** inactive: 0.0939%

**Q.** With `COc1cccc(N(CC(=O)N2CCCCCC2)S(C)(=O)=O)c1` as the compound, how does the “activity change, negative = inhibition” value read?
**A.** inactive: 4.69%

**Q.** Which “activity change, negative = inhibition” value does the source give for `CCOC(=O)C(C)(C)Sc1ncnc2nc[nH]c12` here?
**A.** inactive: -12.4%

**Q.** For `Cc1nnc(N/N=C\c2ccc(-c3cccc(C(=O)O)c3)o2)n1N`, which “activity change, negative = inhibition” value is on record?
**A.** inactive: -15.5%

**Q.** Which Potency does the source give for `Cc1ccc(OCCCc2c(C)n[nH]c2C)cc1` here?
**A.** inconclusive: 23.1 µM [inhibitor, single point]

**Q.** For `CCCCC(=O)Nc1nc(-c2ccc(S(=O)(=O)N3CCOCC3)cc2)cs1`, which Potency is on record?
**A.** inconclusive: 29.1 µM [inhibitor, single point]

**Q.** Which Potency does the source give for `COc1ccc(OC)c(S(=O)(=O)Nc2ccc3c(c2)N(C(C)=O)CCC3)c1` here?
**A.** inconclusive: 16.4 µM [activator, single point]

**Q.** With `COc1ccc(Nc2oc(COc3ccccc3OC)nc2C#N)cc1` as the compound, how does the “activity change, negative = inhibition” value read?
**A.** inactive: -18.7%

**Q.** With `O=C(COc1ccccc1)N(Cc1ccco1)c1ccc(O)cc1` as the compound, how does the Potency read?
**A.** inconclusive: 20.6 µM [inhibitor, partial curve, poor fit]

**Q.** Which Potency does the source give for `COc1ccccc1C(=O)O/N=C(\N)c1ccccc1Cl` here?
**A.** inconclusive: 14.6 µM [activator, partial curve]

**Q.** Which Potency does the source give for `CCC(Sc1nnc(C)s1)C(=O)Nc1nccs1` (configuration not stated) here?
**A.** inconclusive: 1 µM [inhibitor, single point]

**Q.** For `COc1cc([N+](=O)[O-])ccc1NC(=O)NCc1ccccn1`, which “activity change, negative = inhibition” value is on record?
**A.** inactive: 14.3%

**Q.** Which Potency does the source give for `O=C(CSCc1ccc(Cl)cc1)Nc1ccc2c(c1)OCCO2` here?
**A.** inconclusive: 0.082 µM [activator, partial curve, poor fit]

**Q.** Which Potency does the source give for `COc1ccc(C(=O)Nc2ccc(S(=O)(=O)NC(C)C)cc2)cc1` here?
**A.** inconclusive: 25.9 µM [inhibitor, single point]

**Q.** Which Potency does the source give for `Cc1ccc(NC(=O)c2sc3nc(N)c(C#N)cc3c2N)cc1` here?
**A.** inconclusive: 13 µM [activator, partial curve]

**Q.** With `COc1ccc(C(=O)NNC(=O)Cc2nc3ccccc3n2C)cc1` as the compound, how does the “activity change, negative = inhibition” value read?
**A.** inactive: 10.1%

**Q.** For `CC1CC(C)CN(C(=O)c2ccc(NS(=O)(=O)c3ccc4[nH]c(=O)[nH]c4c3)cc2)C1` (configuration not stated), which “activity change, negative = inhibition” value is on record?
**A.** inactive: 8.57%

**Q.** With `Cc1ccc(C(=O)O)cc1-n1c(=O)n(Cc2ccccc2)c(=O)c2[nH]cnc21` as the compound, how does the “activity change, negative = inhibition” value read?
**A.** inactive: 1.76%

**Q.** With `C/C(=N\NC(=O)c1cccc(Br)c1)c1cccc(NC(=O)c2ccc(C)o2)c1` as the compound, how does the Potency read?
**A.** inconclusive: 20.6 µM [inhibitor, single point]

**Q.** Which Potency does the source give for `Brc1ccc(-c2cn3ccccc3n2)s1` here?
**A.** inconclusive: 9.2 µM [activator, partial curve]

**Q.** For `O=C(Cn1ccnc1)c1ccc(Cl)cc1`, which “activity change, negative = inhibition” value is on record?
**A.** inactive: 2.43%

**Q.** For `Cn1c(=O)cc(SCC(=O)Nc2cccnc2)c2ccccc21`, which Potency is on record?
**A.** inconclusive: 20.6 µM [inhibitor, single point]

Source: PubChem BioAssay AID504467 (National Center for Advancing Translational Sciences (NCATS), 2011)
